Experimental data published in article PMC10063672.
No constants are given. Whether binding was seen depends on the method and setting. Binding seen in cells or lysates may run through a third protein. Some entries that bind do so weakly or less than the wild type. Where a sequence is shown, tags or fusion partners need not be part of it.

Target: T1, Flag-tagged ADCY9 (adenylyl cyclase 9) expressed in COS-1 cells (UniProt O60503)
T1 sequence: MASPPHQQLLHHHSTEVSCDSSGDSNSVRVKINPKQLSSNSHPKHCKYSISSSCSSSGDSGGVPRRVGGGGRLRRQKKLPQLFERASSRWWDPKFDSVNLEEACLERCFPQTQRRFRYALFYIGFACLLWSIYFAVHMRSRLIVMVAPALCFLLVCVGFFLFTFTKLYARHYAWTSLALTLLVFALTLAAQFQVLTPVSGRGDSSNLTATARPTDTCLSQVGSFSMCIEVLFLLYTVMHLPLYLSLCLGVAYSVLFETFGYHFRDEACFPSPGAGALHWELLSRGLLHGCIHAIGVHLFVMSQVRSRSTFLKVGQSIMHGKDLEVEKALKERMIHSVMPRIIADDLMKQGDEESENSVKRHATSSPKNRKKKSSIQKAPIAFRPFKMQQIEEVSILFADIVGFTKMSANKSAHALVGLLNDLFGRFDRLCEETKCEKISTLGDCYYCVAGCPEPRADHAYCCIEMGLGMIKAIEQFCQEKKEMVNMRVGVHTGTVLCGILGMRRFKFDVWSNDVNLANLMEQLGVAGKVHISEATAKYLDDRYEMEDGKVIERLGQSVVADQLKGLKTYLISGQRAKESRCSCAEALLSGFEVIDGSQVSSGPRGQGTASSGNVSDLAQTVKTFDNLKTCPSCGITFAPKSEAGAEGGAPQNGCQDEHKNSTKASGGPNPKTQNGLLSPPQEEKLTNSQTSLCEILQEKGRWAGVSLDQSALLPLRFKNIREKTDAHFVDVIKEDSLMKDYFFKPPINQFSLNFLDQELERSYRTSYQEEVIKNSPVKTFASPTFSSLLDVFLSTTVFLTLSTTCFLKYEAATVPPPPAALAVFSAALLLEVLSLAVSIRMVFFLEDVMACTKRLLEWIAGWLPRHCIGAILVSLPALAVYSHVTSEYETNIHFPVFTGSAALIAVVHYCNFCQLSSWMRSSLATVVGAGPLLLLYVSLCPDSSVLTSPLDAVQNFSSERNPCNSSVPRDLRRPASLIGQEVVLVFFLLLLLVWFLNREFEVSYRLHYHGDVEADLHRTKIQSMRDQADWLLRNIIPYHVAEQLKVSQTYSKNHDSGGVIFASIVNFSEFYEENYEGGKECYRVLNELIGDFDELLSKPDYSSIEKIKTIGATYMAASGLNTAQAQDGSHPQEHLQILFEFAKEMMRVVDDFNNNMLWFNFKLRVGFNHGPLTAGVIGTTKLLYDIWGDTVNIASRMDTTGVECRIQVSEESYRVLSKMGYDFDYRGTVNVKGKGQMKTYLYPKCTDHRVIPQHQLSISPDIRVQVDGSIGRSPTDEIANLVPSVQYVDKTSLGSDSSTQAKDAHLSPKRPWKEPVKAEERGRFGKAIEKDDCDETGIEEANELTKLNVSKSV
Experiment: co-IP; lysates of Cos-1 cells co-transfected with ADCY9-FLAG and BVES-3xHA; precipitated with anti-Flag antibody and protein A/G agarose beads

B1: BVES-3xHA (HA-tagged BVES) expressed in COS-1 cells (protein, UniProt Q8NE79 1-360)
chain: MNYTESSPLRESTAIGFTPELESIIPVPSNKTTCENWREIHHLVFHVANICFAVGLVIPTTLHLHMIFLRGMLTLGCTLYIVWATLYRCALDIMIWNSVFLGVNILHLSYLLYKKRPVKIEKELSGMYRRLFEPLRVPPDLFRRLTGQFCMIQTLKKGQTYAAEDKTSVDDRLSILLKGKMKVSYRGHFLHNIYPCAFIDSPEFRSTQMHKGEKFQVTIIADDNCRFLCWSRERLTYFLESEPFLYEIFRYLIGKDITNKLYSLNDPTLNDKKAKKLEHQLSLCTQISMLEMRNSIASSSDSDDGLHQFLRGTSSMSSLHVSSPHQRASAKMKPIEEGAEDDDDVFEPASPNTLKVHQLP
- binding: binds
